Experimental findings from article PMC3871820 are described below.

Amino acid sequences for entries named in this document (tags omitted).
UniProt O64647: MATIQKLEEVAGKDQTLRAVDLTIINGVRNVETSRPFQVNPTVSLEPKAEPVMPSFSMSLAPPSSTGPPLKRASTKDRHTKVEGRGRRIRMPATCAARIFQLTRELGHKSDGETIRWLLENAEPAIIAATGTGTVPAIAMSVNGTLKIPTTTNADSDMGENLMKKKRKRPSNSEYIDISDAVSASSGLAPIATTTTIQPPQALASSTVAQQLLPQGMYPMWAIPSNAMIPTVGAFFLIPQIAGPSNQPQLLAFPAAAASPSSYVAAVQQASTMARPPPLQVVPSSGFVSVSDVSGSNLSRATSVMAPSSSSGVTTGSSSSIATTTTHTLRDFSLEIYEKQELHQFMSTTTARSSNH
UniProt Q9LSD5: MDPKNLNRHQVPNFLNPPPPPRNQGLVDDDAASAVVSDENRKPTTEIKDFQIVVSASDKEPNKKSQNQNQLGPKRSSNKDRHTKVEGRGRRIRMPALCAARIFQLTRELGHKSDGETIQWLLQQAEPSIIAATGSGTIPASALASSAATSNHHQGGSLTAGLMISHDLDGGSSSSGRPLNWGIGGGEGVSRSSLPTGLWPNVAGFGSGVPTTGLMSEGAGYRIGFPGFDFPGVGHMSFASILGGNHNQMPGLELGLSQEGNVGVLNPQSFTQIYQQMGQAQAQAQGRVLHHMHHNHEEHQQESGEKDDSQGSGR

For assay [1], the target named is TCP9 (Arabidopsis thaliana) (UniProt O64647). Description: two-hybrid; matrix-based GAL4 yeast two-hybrid by mating (baits in PJ69-4alpha, preys in PJ69-4a); selection on SD-Leu-Trp-Ade or SD-Leu-Trp-His with 5 and 10 mM 3-amino-1,2,4-triazole; scored after 5 days at 30 °C; BD baits of TCP1, 2, 4, 10, 12, 18, 20 and 24 excluded for auto-activation; positive only if reproducible with at least two selection markers.

Assay [2] has the same target. Described as above. This is another data set of the same source.

Like-named read-outs stand apart in the source and are kept apart here. These are yes or no findings as the source states them, for the method shown.

Turning to TCP20 (from UniProt Q9LSD5 1-314), in assay [1], the binding entry is listed as “no binding”.

B1: TCP4 (protein, UniProt Q8LPR5 1-420)
chain: MSDDQFHHPPPPSSMRHRSTSDAADGGCGEIVEVQGGHIVRSTGRKDRHSKVCTAKGPRDRRVRLSAHTAIQFYDVQDRLGFDRPSKAVDWLIKKAKTSIDELAELPPWNPADAIRLAAANAKPRRTTAKTQISPSPPPPQQQQQQQQLQFGVGFNGGGAEHPSNNESSFLPPSMDSDSIADTIKSFFPVIGSSTEAPSNHNLMHNYHHQHPPDLLSRTNSQNQDLRLSLQSFPDGPPSLLHHQHHHHTSASASEPTLFYGQSNPLGFDTSSWEQQSSEFGRIQRLVAWNSGGGGGATDTGNGGGFLFAPPTPSTTSFQPVLGQSQQLYSQRGPLQSSYSPMIRAWFDPHHHHQSISTDDLNHHHHLPPPVHQSAIPGIGFASGEFSSGFRIPARFQGQEEEQHDGLTHKPSSASSISRH
Take B1: the binding result in assay [2] was “no binding”.

B2: TCP24 (protein, UniProt Q9C758 1-324)
chain: MEVDEDIELQKHQEQQSRKLQRFSEDNTGLMRNWNNPSSRIIRVSRASGGKDRHSKVLTSKGLRDRRIRLSVATAIQFYDLQDRLGFDQPSKAVEWLINAASDSITDLPLLNTNFDHLDQNQNQTKSACSSGTSESSLLSLSRTEIRGKARERARERTAKDRDKDLQNAHSSFTQLLTGGFDQQPSNRNWTGGSDCFNPVQLQIPNSSSQEPMNHPFSFVPDYNFGISSSSSAINGGYSSRGTLQSNSQSLFLNNNNNITQRSSISSSSSSSSPMDSQSISFFMATPPPLDHHNHQLPETFDGRLYLYYGEGNRSSDDKAKERR
With B2, the binding entry in assay [2] is “no binding”.

B3: TCP10 (protein, UniProt O82277 1-361)
chain: MGLKGYSVGEGGGEIVEVQGGHIIRATGRKDRHSKVFTSKGPRDRRVRLSAHTAIQFYDVQDRLGYDRPSKAVDWLIKKAKTAIDKLELGETTTTTTRQEPVNTKPESPTLVFQRENNDQTQFVAANLDPEDAMKTFFPATTTTNGGGGTNINFQNYPHQDDNNMVSRTTTPPPNLSQDLGLSLHPFQGNNNTVVVPETNNFTTTHFDTFGRISGWNHHDLTMTSSSSSEHQQQEQEERSNGGFMVNHHPHHHHHQPSMMTLLNSQQQQVFLGGQQQQQQRGTLQSSLFPHSFRSWDHHQTTSDHHHHQNQASSMFASSSQYGSHGMMMMQGLSFPNTTRLLHGEEATQPNSSSSPPNSHL
Take B3: the binding result in assay [2] is “no binding”.

B4: TCP2 (protein, UniProt Q93V43 1-365)
chain: MIGDLMKNNNNGDVVDNEVNNRLSRWHHNSSRIIRVSRASGGKDRHSKVLTSKGPRDRRVRLSVSTALQFYDLQDRLGYDQPSKAVEWLIKAAEDSISELPSLNNTHFPTDDENHQNQTLTTVAANSLSKSACSSNSDTSKNSSGLSLSRSELRDKARERARERTAKETKERDHNHTSFTDLLNSGSDPVNSNRQWMASAPSSSPMEYFSSGLILGSGQQTHFPISTNSHPFSSISDHHHHHPHHQHQEFSFVPDHLISPAESNGGAFNLDFNMSTPSGAGAAVSAASGGGFSGFNRGTLQSNSTNQHQSFLANLQRFPTSESGGGPQFLFGALPAENHHHNHQFQLYYENGCRNSSEHKGKGKN
Consider B4, for which, in assay [2], the binding result was “no binding”.
